According to publication PMC5295395, “Inhibition of PlexA1-mediated brain tumor growth and tumor-associated angiogenesis using a transmembrane domain targeting peptide” (Oncotarget, 2016):
These are yes or no findings as the source states them, for the method shown. Binding seen in cells or lysates may run through a third protein. Some results given as binding are weak or reduced against the parent protein; the word gives no strength.

The chains behind the UniProt entries cited, without tags or fusion partners. Residues count along the entry.
UniProt Q9UIW2, residues 27-1896: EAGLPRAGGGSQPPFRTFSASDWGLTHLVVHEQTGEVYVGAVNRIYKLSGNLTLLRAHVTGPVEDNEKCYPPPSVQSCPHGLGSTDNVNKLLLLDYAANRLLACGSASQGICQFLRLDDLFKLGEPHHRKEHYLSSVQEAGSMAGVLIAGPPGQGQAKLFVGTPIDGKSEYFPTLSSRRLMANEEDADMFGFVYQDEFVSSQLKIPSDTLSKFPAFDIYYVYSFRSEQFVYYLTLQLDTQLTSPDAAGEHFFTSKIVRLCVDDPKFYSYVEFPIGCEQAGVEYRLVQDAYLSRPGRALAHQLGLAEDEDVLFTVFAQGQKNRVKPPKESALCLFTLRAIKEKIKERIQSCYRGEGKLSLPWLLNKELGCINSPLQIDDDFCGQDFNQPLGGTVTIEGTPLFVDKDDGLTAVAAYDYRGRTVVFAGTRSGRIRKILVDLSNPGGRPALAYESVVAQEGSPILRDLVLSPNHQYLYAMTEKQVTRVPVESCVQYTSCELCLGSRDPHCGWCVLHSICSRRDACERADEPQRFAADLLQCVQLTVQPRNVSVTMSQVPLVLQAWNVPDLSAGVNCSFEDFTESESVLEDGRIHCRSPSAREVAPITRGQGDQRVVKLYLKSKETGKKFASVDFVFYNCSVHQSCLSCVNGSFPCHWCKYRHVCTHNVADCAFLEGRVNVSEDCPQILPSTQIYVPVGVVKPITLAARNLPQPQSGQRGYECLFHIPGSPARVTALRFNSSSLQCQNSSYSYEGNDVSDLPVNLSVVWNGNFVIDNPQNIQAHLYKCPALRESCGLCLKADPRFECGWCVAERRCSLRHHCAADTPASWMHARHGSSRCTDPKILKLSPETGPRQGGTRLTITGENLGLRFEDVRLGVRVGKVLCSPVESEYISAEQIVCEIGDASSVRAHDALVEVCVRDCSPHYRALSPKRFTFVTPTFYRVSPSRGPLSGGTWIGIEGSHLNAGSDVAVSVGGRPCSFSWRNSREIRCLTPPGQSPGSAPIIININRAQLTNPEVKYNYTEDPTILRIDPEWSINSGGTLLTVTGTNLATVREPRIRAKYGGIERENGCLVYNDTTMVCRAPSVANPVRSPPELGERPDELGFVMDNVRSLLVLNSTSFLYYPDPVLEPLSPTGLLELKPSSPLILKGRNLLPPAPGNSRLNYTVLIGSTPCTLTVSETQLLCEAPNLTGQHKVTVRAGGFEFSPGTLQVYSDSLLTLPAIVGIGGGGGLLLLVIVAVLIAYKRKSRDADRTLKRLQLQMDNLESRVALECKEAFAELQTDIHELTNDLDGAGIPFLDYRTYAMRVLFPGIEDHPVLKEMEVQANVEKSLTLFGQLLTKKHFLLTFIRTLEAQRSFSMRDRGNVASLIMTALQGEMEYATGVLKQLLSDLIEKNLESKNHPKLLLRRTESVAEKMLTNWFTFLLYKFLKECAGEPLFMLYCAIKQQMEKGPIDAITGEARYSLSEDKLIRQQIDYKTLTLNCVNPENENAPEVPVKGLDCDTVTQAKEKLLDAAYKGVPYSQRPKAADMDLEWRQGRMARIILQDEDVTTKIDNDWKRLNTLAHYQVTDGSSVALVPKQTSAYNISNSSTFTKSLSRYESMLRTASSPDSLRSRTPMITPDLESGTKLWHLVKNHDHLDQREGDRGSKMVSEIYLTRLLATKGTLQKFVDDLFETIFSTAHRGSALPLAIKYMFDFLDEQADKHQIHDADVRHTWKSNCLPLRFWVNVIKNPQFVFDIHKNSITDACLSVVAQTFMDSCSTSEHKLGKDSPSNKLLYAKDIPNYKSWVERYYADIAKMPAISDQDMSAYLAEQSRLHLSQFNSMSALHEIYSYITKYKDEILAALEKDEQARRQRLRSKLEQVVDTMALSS
UniProt O14786, residues 22-923: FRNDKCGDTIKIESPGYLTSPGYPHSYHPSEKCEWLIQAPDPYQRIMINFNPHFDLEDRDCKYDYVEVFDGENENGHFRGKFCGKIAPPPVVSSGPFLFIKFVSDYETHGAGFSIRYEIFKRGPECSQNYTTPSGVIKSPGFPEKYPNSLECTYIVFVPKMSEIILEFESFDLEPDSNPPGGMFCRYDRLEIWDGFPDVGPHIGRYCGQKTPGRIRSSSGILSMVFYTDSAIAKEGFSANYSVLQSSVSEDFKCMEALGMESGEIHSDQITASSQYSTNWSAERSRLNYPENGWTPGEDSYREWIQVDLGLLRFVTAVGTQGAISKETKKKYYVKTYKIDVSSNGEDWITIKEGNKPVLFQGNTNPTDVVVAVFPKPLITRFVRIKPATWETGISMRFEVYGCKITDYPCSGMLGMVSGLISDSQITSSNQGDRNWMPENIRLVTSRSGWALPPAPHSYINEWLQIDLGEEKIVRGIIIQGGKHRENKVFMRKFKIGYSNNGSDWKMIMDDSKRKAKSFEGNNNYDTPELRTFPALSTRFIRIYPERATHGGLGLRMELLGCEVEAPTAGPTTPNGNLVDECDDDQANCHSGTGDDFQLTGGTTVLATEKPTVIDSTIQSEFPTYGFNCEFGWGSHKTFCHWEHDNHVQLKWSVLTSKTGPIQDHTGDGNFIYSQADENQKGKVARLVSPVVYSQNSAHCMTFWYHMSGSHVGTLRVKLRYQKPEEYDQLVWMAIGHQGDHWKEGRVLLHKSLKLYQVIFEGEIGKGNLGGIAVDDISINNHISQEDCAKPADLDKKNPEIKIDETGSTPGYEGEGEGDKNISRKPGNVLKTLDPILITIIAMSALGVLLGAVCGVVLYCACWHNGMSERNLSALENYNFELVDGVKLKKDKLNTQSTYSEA
UniProt Q9HCM2, residues 24-1894: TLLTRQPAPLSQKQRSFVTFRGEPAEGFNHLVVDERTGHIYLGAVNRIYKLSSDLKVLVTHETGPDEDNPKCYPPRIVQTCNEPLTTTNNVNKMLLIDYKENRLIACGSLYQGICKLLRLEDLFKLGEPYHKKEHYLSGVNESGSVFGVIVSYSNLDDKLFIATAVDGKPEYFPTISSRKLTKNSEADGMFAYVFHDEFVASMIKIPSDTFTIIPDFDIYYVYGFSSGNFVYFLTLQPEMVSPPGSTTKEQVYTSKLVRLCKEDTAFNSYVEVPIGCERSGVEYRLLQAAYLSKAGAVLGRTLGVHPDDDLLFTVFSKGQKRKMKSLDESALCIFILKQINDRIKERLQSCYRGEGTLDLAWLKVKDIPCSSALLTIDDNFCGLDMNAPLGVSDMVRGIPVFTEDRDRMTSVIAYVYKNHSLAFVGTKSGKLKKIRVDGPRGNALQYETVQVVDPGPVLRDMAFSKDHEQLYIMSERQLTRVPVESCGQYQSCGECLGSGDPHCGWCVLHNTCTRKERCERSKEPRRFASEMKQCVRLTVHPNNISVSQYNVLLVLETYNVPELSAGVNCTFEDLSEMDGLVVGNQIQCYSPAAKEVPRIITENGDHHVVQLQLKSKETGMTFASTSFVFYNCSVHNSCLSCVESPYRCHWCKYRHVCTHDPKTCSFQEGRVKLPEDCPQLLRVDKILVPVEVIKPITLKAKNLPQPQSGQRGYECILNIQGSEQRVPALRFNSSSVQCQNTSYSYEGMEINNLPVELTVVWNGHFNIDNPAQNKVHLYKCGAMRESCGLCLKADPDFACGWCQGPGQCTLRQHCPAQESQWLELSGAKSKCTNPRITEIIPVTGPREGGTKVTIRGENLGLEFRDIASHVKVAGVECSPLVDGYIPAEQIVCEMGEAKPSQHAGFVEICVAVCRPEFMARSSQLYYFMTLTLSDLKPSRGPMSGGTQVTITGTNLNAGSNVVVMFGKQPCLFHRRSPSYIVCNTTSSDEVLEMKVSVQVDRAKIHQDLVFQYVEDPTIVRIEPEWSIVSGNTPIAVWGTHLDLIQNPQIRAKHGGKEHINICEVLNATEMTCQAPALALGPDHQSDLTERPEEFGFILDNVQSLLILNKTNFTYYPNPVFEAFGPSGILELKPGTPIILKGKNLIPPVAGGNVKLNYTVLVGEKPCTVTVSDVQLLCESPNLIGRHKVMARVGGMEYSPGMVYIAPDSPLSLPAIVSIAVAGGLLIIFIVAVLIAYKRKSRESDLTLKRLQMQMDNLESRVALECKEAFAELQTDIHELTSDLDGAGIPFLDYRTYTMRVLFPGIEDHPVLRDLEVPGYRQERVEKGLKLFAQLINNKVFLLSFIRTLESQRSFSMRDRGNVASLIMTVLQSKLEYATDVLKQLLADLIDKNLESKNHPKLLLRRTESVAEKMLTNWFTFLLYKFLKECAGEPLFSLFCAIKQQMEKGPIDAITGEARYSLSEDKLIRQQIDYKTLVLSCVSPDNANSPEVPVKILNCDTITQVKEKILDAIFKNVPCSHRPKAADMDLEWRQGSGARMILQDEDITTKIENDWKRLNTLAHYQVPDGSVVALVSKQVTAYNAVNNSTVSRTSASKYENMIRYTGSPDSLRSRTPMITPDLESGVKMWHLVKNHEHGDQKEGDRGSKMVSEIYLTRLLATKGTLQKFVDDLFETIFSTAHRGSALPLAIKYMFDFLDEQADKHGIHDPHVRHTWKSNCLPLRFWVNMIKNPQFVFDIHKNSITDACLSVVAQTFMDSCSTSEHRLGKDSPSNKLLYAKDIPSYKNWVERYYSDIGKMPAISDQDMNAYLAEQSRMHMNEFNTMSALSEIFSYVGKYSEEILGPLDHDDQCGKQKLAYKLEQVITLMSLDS

How the values were obtained:
[1] = target: Plexin-A1 (human (endogenous in U373MG and U118MG)) (UniProt Q9UIW2); experiment: proximity ligation; proximity ligation assay on tumor tissue sections of subcutaneous U118MG-Luc xenografts in mice
[2] = target: Plexin-A1 (human (endogenous in U373MG and U118MG)) (UniProt Q9UIW2); experiment: co-IP; immunoprecipitation of PlexA1 from U373MG cells stimulated with Sema3A (100 ng/ml) or VEGF (100 ng/ml); immunoblot for NRP1 and PlexA4
[3] = target: Plexin-A1 (human (endogenous in U373MG and U118MG)) (UniProt Q9UIW2); experiment: proximity ligation; in situ proximity ligation assay (Duo-link system, Sigma-Aldrich) on U373MG cells; vehicle treated cells as control condition

binding [1] | binding [2] | binding [3] | Substance
binds | binds | binds | Neuropilin-1 (from UniProt O14786 22-923) (receptor)
– | binds | – | Plexin-A4 (from UniProt Q9HCM2 24-1894) (receptor)
